The target of this assay is Kelch-like ECH-associated protein 1 (mouse (endogenous in HL-1)) (UniProt Q9Z2X8). The assay can be described thus: co-IP; HL-1 cells with or without LPS (10 ug/ml); overnight with 1 mg of cell extract in 400 uL lysis buffer, 2.5 mM DTT, 30 uL glutathione agarose beads and 5 ug antibody; which protein was precipitated not given.

By UniProt entry, the sequences of proteins in these tests, tags left out.
UniProt Q9Z2X8: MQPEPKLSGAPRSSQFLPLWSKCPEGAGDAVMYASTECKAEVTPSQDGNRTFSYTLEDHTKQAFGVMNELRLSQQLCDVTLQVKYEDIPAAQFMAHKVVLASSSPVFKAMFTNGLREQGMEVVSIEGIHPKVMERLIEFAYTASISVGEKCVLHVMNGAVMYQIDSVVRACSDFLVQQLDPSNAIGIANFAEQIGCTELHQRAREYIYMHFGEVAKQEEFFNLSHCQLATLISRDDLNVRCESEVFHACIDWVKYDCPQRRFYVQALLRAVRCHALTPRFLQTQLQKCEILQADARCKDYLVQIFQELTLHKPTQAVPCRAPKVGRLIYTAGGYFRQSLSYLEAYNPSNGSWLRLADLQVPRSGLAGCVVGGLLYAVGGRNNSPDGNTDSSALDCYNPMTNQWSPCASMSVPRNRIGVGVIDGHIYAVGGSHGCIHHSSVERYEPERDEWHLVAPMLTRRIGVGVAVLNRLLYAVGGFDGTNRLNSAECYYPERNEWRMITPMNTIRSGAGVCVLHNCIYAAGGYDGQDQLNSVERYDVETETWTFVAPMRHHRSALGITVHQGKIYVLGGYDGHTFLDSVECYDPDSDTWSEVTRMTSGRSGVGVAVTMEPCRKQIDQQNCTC

These are yes or no findings as the source states them, for the method shown. Binding seen in cells or lysates may run through a third protein. Some entries that bind do so weakly or less than the wild type.

B1: Serine/threonine kinase 3 (enzyme, UniProt Q9JI10 1-497)
chain: MEQPPASKSKLKKLSEDSLTKQPEEVFDVLEKLGEGSYGSVFKAIHKESGQVVAIKQVPVESDLQEIIKEISIMQQCDSPYVVKYYGSYFKNTDLWIVMEYCGAGSVSDIIRLRNKTLTEDEIATILKSTLKGLEYLHFMRKIHRDIKAGNILLNTEGHAKLADFGVAGQLTDTMAKRNTVIGTPFWMAPEVIQEIGYNCVADIWSLGITSIEMAEGKPPYADIHPMRAIFMIPTNPPPTFRKPELWSDDFTDFVKKCLVKSPEQRATATQLLQHPFIKNAKPVSILRDLIAEAMEIKAKRHEEQQRELEEEEENSDEDELDSHTMVKTSSESVGTMRATSTMSEGAQTMIEHNSTMLESDLGTMVINSEEEEEEEEEEEEDGTMKRNATSPQVQRPSFMDYFDKQDFKNKSHENCDQSMREPGPMSNSVFPDNWRVPQDGDFDFLKNLSLEELQMRLKALDPMMEREIEELHQRYSAKRQPILDAMDAKKRRQQNF
On to B1, for which the binding entry is “binds”.

The record behind these values is PMC10086747.
